According to PubChem BioAssay AID493014 (National Center for Advancing Translational Sciences (NCATS), 2011):
Screen size: about 340,000 compounds; about 170 (0.05%) were called active. Inconclusive means that the source gave no clear call. Such entries were picked first, then a sample of the others. The call rests on the fitted dose curve; in most records, active means well fitted inhibition curve with a large enough effect in the signal ratio, with a control signal flat (not every such curve was filed as active); inconclusive means small, poorly fitted or top-dose-only effect, or effect the other way, or a change in a side signal; inactive means flat fitted curve, though single readings scatter; the % refers to the signal ratio. A potency beside an inconclusive call is a rough fit, not a confirmed value.

experiment: qHTS Assay to Find Inhibitors of Chronic Active B-Cell Receptor Signaling; conditions: ABC-DLBCL IkBa-CBG/CBR reporter, luminescence ratio (green luciferase fused to IkBa over red control in TMD8 lymphoma cells), 4 h; activity change, negative = inhibition: at 46.1 µM (top of the series) unless noted;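 on activity change, negative = inhibition: plate controls were basal doxycycline-induced cells for no effect and cells given 10 µM MG132 for full effect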
In short: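 TMD8 human ABC-DLBCL cells with doxycycline-inducible IκBα–green luciferase fusion and unfused red luciferase, in 0.5% FBS medium; compounds up to 46 uM, 4 h at 37C. Green/red luminescence ratio, filter-overlap corrected, fitted to concentration-response curves.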
Potency means the concentration at half of the fitted maximal effect.

SMILES	activity change, negative = inhibition	Potency
N#Cc1nc(-c2ccccc2)oc1NCC1CCCO1 (stereo not drawn)	inconclusive: 5.07%	–
Cn1c(=O)cc(SCC(=O)NCC2CCCO2)c2ccccc21 (stereo not drawn)	inconclusive: 10.7%	–
CCCN(C(=O)c1cn(C)c(=O)c2cc(OC)c(OC)cc12)c1ccc(CC)cc1	inactive: 4.8%	–
O=C(NCC1CCCO1)C(c1cccs1)N(Cc1ccccc1)C(=O)c1ccc(-c2ccccc2)[nH]1 (stereo not drawn)	inactive: 9.99%	–
CCN(CC)S(=O)(=O)c1ccc(C)c(NC(=S)N2CCN(Cc3ccc4c(c3)OCO4)CC2)c1	inconclusive: -2.9%	–
O=C(CSc1nnc(COc2ccccc2)o1)NC1CC2CCC1C2 (stereo not drawn)	inconclusive: 2.7%	–
CC1(C)Cc2c(c(N3CCCC3)nc3sc4c(N5CCNCC5)ncnc4c23)CO1	inconclusive: -11.3%	–
CCNc1nc(NCC)nc(N/N=C/c2ccc([N+](=O)[O-])o2)n1	–	inconclusive: 6.51 µM [rising, partial curve, poor fit]
CCc1sc(NC(=O)CCC(=O)O)nc1-c1cc2ccccc2oc1=O	–	inconclusive: 3.55 µM [falling, partial curve, poor fit]
COc1cccc(C2/C(=C(/O)c3cnn(-c4ccccc4)c3C)C(=O)C(=O)N2CCN(C)C)c1 (stereo not drawn)	–	inconclusive: 8.2 µM [rising, partial curve]
CN(CCC#N)C(=O)COC(=O)c1cccnc1Nc1ccccc1F	inconclusive: -11.5%	–
CCN1C(=O)c2ccccc2S(=O)(=O)c2ccc(C(=O)NCCOC)cc21	inactive: 3.02%	–
COc1ccc(C2=CC(=O)OC3(CCCCC3)O2)cc1	inconclusive: -0.422%	–
Cc1cc2cc(CNC(=O)c3ccc(S(=O)(=O)N4CCCCC4)cc3)ccc2[nH]1	inactive: 6.21%	–
O=C(COc1ccc(Br)cc1Br)NC(=S)Nc1cccc(CO)c1	inconclusive: 0.914%	–
CCN(C(=O)COC(=O)c1nc(Cl)ccc1Cl)C1CCS(=O)(=O)C1 (stereo not drawn)	–	inconclusive: 14.6 µM [falling, single point]
Cc1cc(C(=O)N/N=C/c2c(C)nn(-c3ccccc3)c2C)c(C)o1	–	inconclusive: 35.5 µM [falling, single point]
CCCn1c(SCC(=O)Nc2nc(C)c(C(=O)OC)s2)nnc1C(C)C	inconclusive: -6.65%	–
C#Cc1ccc(CN2CCCC(C(=O)Nc3ccccc3Oc3cccnc3)C2)cc1 (stereo not drawn)	inconclusive: 1.13%	–
Cc1nnc(N/N=C/c2cccs2)[nH]c1=O	inconclusive: -7.06%	–
O=[N+]([O-])c1ccc(N2CCN(c3ccc(F)cc3)CC2)cc1	inactive: 6.99%	–
O=C1CC2(CCN(C(=O)c3ccccc3Cl)CC2)Oc2ccccc21	inconclusive: -7.86%	–
CCO[C@H]1OC(C(=O)NCc2ccccc2)=C[C@@H](c2coc3ccccc3c2=O)[C@@H]1CCCO	–	inconclusive: 0.0891 µM [falling, full curve, poor fit]
N#Cc1cccc(Cn2nnc(-c3ccccc3)n2)c1	inconclusive: 2.6%	–
Cc1[nH][nH]c(=O)c1C	inconclusive: -0.412%	–
C=CCn1c(NC(=O)c2ccccc2)nc2ccccc21	inactive: -0.603%	–

SMILES	activity change, negative = inhibition	Potency
CC(=O)Nc1ccc(NC(=O)C(C)OC(=O)c2cccc(S(=O)(=O)N3CCCC3)c2)cc1 (stereo not drawn)	inactive: 3.55%	–
CC(C)Cc1cc(-c2ccco2)c(C#N)c(N)n1	inconclusive: 2.06%	–
CC(C)Cc1nnc(NC(=O)CSc2ncn[nH]2)s1	–	inconclusive: 14.6 µM [falling, partial curve]
Cc1ccc(NC(=O)C2CCN(S(=O)(=O)c3ccc4c(c3)CC(C)N4C(=O)C3CCC3)CC2)nc1 (stereo not drawn)	inconclusive: 7.62%	–
COc1ccc(OC)c(NC(=O)N2CCCc3ccccc32)c1	inconclusive: -2.33%	–
C(=N\Nc1nc2ccccc2[nH]1)/c1ccc2c(c1)OCCO2	–	inconclusive: 20 µM [falling, single point]
CCOC(=O)N1CCN(C(=O)COC(=O)CNC(=O)c2ccc(C)cc2)CC1	inconclusive: 7.42%	–
O=C1OCCC1Sc1nc(-c2ccccc2)cs1 (stereo not drawn)	inconclusive: 4.26%	–
O=C(NNC(=O)C1CC1c1ccccc1)Nc1ccccc1 (stereo not drawn)	inconclusive: 0.837%	–
Cc1noc(NS(=O)(=O)c2ccc(NC(=O)/C=C/c3ccccc3)cc2)c1C	inconclusive: -1.28%	–
Cc1cccc(NCc2ccc([N+](=O)[O-])s2)c1	inactive: -4.6%	–
COc1cccc(C2/C(=C(/O)c3ccccc3)C(=O)C(=O)N2CCCC(=O)O)c1 (stereo not drawn)	inconclusive: 3.26%	–
Cc1nc([N+](=O)[O-])c(N2CCOCC2)n1Cc1ccccc1	–	inconclusive: 35.5 µM [falling, single point]
COc1ccc(-c2ccc(/C=N/NC(=O)Cc3nnc(N)s3)o2)cc1Cl	inconclusive: 9.6%	–
CC(C)[C@H](NC(=O)N1CCn2c1nc1ccccc12)C(=O)N[C@H](C(=O)O)c1ccccc1	inconclusive: -16.6%	–
O=C(COc1ccccc1C(=O)O)Nc1nc2ccc([N+](=O)[O-])cc2s1	–	inconclusive: 3.16 µM [falling, full curve]
CC(=O)c1ccc(C(=O)Nc2ccc3c(c2)C(=O)NC3=O)cc1	–	inconclusive: 10 µM [falling, partial curve]
CC(=O)c1cccc(NC(=O)c2noc3c2CCc2ccccc2-3)c1	–	inconclusive: 3.98 µM [falling, partial curve, poor fit]
COc1ccc(CNC(=O)N2CCN(c3ccc(F)cc3)CC2)cc1Cl	inconclusive: -25.8%	–
CCc1ccc(S(=O)(=O)Nc2ccncc2)cc1	inactive: -3.91%	–
COc1cc(/C=N\NC(=O)Cn2nnc3ccccc32)cc(OC)c1OC	inactive: 1.29%	–
O=C(CCN1C(=O)/C(=C/c2ccccc2)SC1=S)NNC(=O)c1cccnc1	inconclusive: -9.24%	–
C=CCC[C@@H](Cc1ccc(F)cc1)C(=O)OC[C@@H](Cc1c[nH]c2ccccc12)NC(=O)[C@@H](CC=C)CC(=O)N[C@H](CO)Cc1ccccc1	inconclusive: -3.88%	–
O=C(c1nnsc1S(=O)c1ccc(Cl)cc1)N1CCOCC1 (stereo not drawn)	inconclusive: 16%	–
C=CCn1c(SCC(=O)N2CCc3ccccc3C2)nc2sc(CC)cc2c1=O	–	inconclusive: 13 µM [rising, partial curve, poor fit]
Cc1cc(OCC(=O)NC2CCCCC2)ccc1Cl	–	inconclusive: 32.6 µM [falling, partial curve, poor fit]

In another format: three of the compounds above

| SMILES | activity change, negative = inhibition | Potency |
| --- | --- | --- |
| Cc1nc([N+](=O)[O-])c(N2CCOCC2)n1Cc1ccccc1 | – | inconclusive: 35.5 µM [falling, single point] |
| CC(C)[C@H](NC(=O)N1CCn2c1nc1ccccc12)C(=O)N[C@H](C(=O)O)c1ccccc1 | inconclusive: -16.6% | – |
| C=CCn1c(SCC(=O)N2CCc3ccccc3C2)nc2sc(CC)cc2c1=O | – | inconclusive: 13 µM [rising, partial curve, poor fit] |

(list continues)

SMILES	activity change, negative = inhibition	Potency
COc1cccc(NC(=O)[C@@H]2CCCN2S(=O)(=O)c2cccc3cccnc23)c1	inconclusive: -28.1%	–
C=CCC(CC(O)COCCC)C(=O)NNC(=S)Nc1ccccc1 (stereo not drawn)	inconclusive: 378% [cytotoxic]	–
CCOC(=O)C1=C(C)OC(N)=C(C#N)C1c1cc2c(cc1Br)OCO2 (stereo not drawn)	inconclusive: -17.4%	–
CCOC(=O)CSc1nnc(NC(=O)c2cc([N+](=O)[O-])cc([N+](=O)[O-])c2)s1	–	inconclusive: 29.1 µM [rising, single point]
CC1C/C(=N\NC(N)=S)c2cc(Cl)ccc2S1 (stereo not drawn)	–	inconclusive: 7.94 µM [falling, partial curve]
C[C@H](CO)N1C[C@H](C)[C@@H](CN(C)C(=O)Nc2ccccc2)Oc2c(NC(=O)C3CCCCC3)cccc2C1=O	inconclusive: 2.27%	–
COc1ccc(N(CC(=O)Nc2cc(C)cc(C)c2)S(=O)(=O)c2ccccc2[N+](=O)[O-])c(OC)c1	inactive: -3.46%	–
O=C(CSc1nc(-c2ccccc2)cn1-c1ccccc1F)Nc1ccc(F)cc1	–	inconclusive: 1 µM [falling, partial curve]
O=C1c2ccccc2C(=O)c2c1cccc2N(CCO)CCO	inconclusive: 24.5%	–
CC1CCN(C(c2ccccc2)c2sc3nc(-c4ccco4)nn3c2O)CC1 (stereo not drawn)	inactive: 21.6%	–
COC(=O)c1ccccc1NC(=O)Nc1ccc2c(c1)OCO2	–	inconclusive: 9.2 µM [falling, partial curve]
S=C1N(c2ccccc2)C(c2ccccc2)N2CCCN12 (stereo not drawn)	inconclusive: -24.9%	–
COc1ccc2c(c1)c(=O)oc1cc3occ(C(C)(C)C)c3cc12	–	inconclusive: 1.46 µM [falling, partial curve, poor fit]
Cc1ccc2cccc(OCC(=O)N3CCc4ccccc43)c2n1	–	inconclusive: 7.08 µM [falling, full curve, poor fit]
CC(=O)N1CCC(N(CCN2CCOCC2)C(=S)Nc2ccc(C)cc2C)CC1	inconclusive: 5.19%	–
O=C(N/N=C/c1c[nH]c2ccccc12)c1sc2ccccc2c1Cl	inactive: -1.1%	–
Cc1cc(C)c(C(=O)CSc2nnc(N)s2)cc1C	inconclusive: -3.73%	–
COc1ccccc1NC(=O)Nc1sccc1-c1nc2ccccc2s1	inconclusive: -1.11%	–
COc1ccc(N2CCN(c3ncnc4c3cnn4-c3ccc(F)cc3)CC2)cc1	inactive: 0.857%	–
COc1cccc(-c2nc3c(c(SCC(=O)N4CCOCC4)n2)Cc2c(CO)cnc(C)c2O3)c1	–	inconclusive: 3.55 µM [falling, partial curve, poor fit]
CC(C)CNS(=O)(=O)c1ccc(CCC(=O)Nc2cc(Cl)ccc2Oc2ccccc2)cc1	–	inconclusive: 1.84 µM [falling, partial curve, poor fit]
Cc1ccc(Nc2nc(-c3ccncc3)cs2)cc1	inconclusive: 5.28%	–
O=C(NCCCN1CCCC1)[C@H](CSCc1ccccc1)N1Cc2ccccc2C1=O	inactive: 0.33%	–
Cc1ccccc1C(=O)OC(C)CN1CCN(C)CC1 (stereo not drawn)	inconclusive: 4.16%	–
COC(=O)c1ccccc1N1C(=O)C2C(C1=O)[C@H]1C=C[C@@H]2C1 (stereo partly drawn)	inconclusive: 0.594%	–
Cc1cccc(C)c1NC(=O)CN1CCN(CCCC(c2ccc(F)cc2)c2ccc(F)cc2)CC1	–	inconclusive: 32.6 µM [falling, single point]
